Reference: PubChem BioAssay AID2685 (National Center for Advancing Translational Sciences (NCATS), 2010)
Some of the results follow. These are further read-outs of the screen, such as a control signal, another cell line or another target. No call is given for them. Most of these compounds were active or inconclusive in the main read-out, so they are no random draw. Potencies come from curve fits of mixed quality, noted in brackets.

Assay: qHTS Assay for Lipid Storage Modulators in Drosophila S3 Cells;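 on cell number change: cells counted by Cell Tracker Red CMTPX staining in the red channel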
Settings: BODIPY lipid droplet fluorescence, 18-24 h; for cell number change: measured here: cell count max response, cells fed with added oleic acid
How it was run: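 Drosophila S3 cells got compounds at several concentrations plus oleic acid (400 uM solution). Laser-scanning cytometry with 488 nm excitation read lipid droplets at 500-530 nm and cells at 575-640 nm. Percent activity was relative to 20 uM Triacsin C.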

[1] = measured here: cell number channel AC50, cells fed with added oleic acid
[2] = measured here: lipid fluorescence (Fed channel) AC50, cells fed with added oleic acid

Compound | AC50 [1] | cell number change [%] | AC50 [2]
COC(=O)c1cc(C(=O)NCCCN2CCOCC2)cc([N+](=O)[O-])c1 | 4.61 µM [rising, single point] |  | 
CC(=O)[C@@H]1[C@@H]2C(=O)N(Cc3ccccc3)C(=O)[C@@H]2C2c3ccccc3C=CN21 (some centres undefined) | 2.91 µM [rising, full curve] | 32.7 | 6.51 µM [rising, single point]
COc1ccc2oc(C(=O)OCC(=O)Nc3cc(S(=O)(=O)N4CCOCC4)ccc3C)c(C)c2c1 | 7.31 µM [falling, partial curve, poor fit] | -33.9 | 16.4 µM [falling, partial curve, poor fit]
CCOC(=O)C1=C(c2ccccc2)OC(N)=C(C#N)C1C(C)C (centres undefined) |  | -17.8 | 0.092 µM [rising, full curve, poor fit]
CCOc1ccc(C(CCc2ccccc2)NC(=O)c2ccccc2F)cc1OCC (centres undefined) |  |  | 0.58 µM [falling, single point]
CCN1C(=O)[C@H]2[C@@H](c3ccc(SC4CCCCC4)c(OC)c3)N[C@@](Cc3ccccc3)(C(=O)OC)[C@H]2C1=O |  | 17.9 | 4.11 µM [falling, partial curve, poor fit]
COc1cccc(CNC(=O)c2ccc(CS(=O)c3ccccc3)o2)c1 (centres undefined) |  | -10 | 29.1 µM [falling, single point]
COc1cc(/C=C2\C(=N)N3N=C(C)SC3=NC2=O)cc(Cl)c1OCCOc1ccc(NC(C)=O)cc1 |  |  | 9.2 µM [rising, partial curve, poor fit]
O=C(CCNS(=O)(=O)c1ccc(Br)cc1)NC1CCN(Cc2ccccc2)CC1 |  | 1.12 | 29.1 µM [falling, single point]
Cc1cc(C(C)(C)C)cc(C)c1CCNC(=O)c1ccc[n+]([O-])c1 |  | -18.3 | 25.9 µM [falling, single point]
Cc1noc(/C=C/N(C)C)c1S(=O)(=O)N1CCC(C(=O)O)CC1 | 0.116 µM [falling, full curve] | -30.3 | 0.206 µM [falling, full curve]
Cc1ccc(-c2nc(NCCN(C)C)c3ccccc3n2)cc1 |  | 17.2 | 29.1 µM [falling, single point]
O=C(CCC1CCCCC1)Nc1cc(Cl)ccc1N1CCOCC1 |  | 49.5 | 
O=C(CCN1C(=O)S/C(=C/c2ccc(Cl)cc2)C1=O)N1CCOCC1 | 29.1 µM [rising, single point] | 52.5 | 0.164 µM [rising, full curve, poor fit]
COc1ccc([C@@H]2Sc3ccccc3N(CCN(C)C)C(=O)[C@@H]2OC(C)=O)cc1 |  | 13 | 16.4 µM [rising, single point]
CCOC(=O)c1ccc2nc3c(cc2c1)CCS3 |  | 14.3 | 
CCOC(=O)c1c(N)sc(C(=O)N(C)C)c1CN1CCOCC1 |  | 23.7 | 6.51 µM [falling, partial curve, poor fit]
CC(C)(C)NC(=O)CCN(/N=C/c1ccccc1O)C1=NS(=O)(=O)c2ccccc21 |  | -27 | 29.1 µM [falling, single point]
COc1cc(/C=C(\C#N)c2nc3ccccc3[nH]2)c([N+](=O)[O-])cc1OCc1ccccc1 | 23.1 µM [falling, single point] | -50.4 | 14.6 µM [falling, single point]

Compound | AC50 [1] | cell number change [%] | AC50 [2]
c1cncc(-c2nnc(SCc3cccc4ccccc34)o2)c1 |  | 29.3 | 3.26 µM [rising, single point]
CSc1ccccc1NC(=O)C1CC(c2ccccc2Cl)=NO1 (centres undefined) |  | -4.95 | 29.1 µM [rising, single point]
N#Cc1c(-c2ccc(Cl)cc2)ccn2nc(C3CCCCC3)nc12 |  | 7.9 | 
CN(C)C(=O)N1CCCC(C(=O)NCc2ccc(F)cc2Cl)C1 (centres undefined) |  | -10.7 | 
Cc1c(Cl)cccc1NC(=O)C1CCN(c2cnccn2)CC1 |  | 16.7 | 5.17 µM [falling, single point]
O=C1CCCCCCC1Sc1ccccc1[N+](=O)[O-] (centres undefined) |  | -4.16 | 29.1 µM [falling, single point]
COc1ccc(OC)c(CC(NC(C)=O)C(=O)NC2CCN(S(=O)(=O)c3ccc(NC(C)=O)cc3)CC2)c1 (centres undefined) | 25.9 µM [rising, partial curve, poor fit] | 38.5 | 0.13 µM [falling, full curve]
Cc1ccc(S(=O)(=O)N2CCN(C(=O)COC(=O)c3ccc(O)cc3)CC2)c(C)c1 |  | 19.5 | 23.1 µM [rising, single point]
CCOc1ccccc1N(CC(=O)NCc1ccncc1)S(=O)(=O)c1ccccc1 |  | 8.97 | 
Cc1ccc(C)c(-n2ccnc2SCC(=O)c2c(N)n(C3CC3)c(=O)[nH]c2=O)c1 |  | 12.6 | 0.00461 µM [rising, full curve, poor fit]
Cc1c(S(=O)(=O)c2ccccn2)c(N)n(Cc2cccc(Cl)c2)c1C |  | 2.84 | 
CN(C)S(=O)(=O)c1cccc(NC(=O)CCCSc2ccccc2)c1 |  | 2.1 | 6.51 µM [rising, single point]
Cc1ccc(Nc2nc(-c3sc(NC(=O)c4cccc(Cl)c4)nc3C)cs2)cc1 | 1.3 µM [falling, full curve, poor fit] | -36 | 
COc1ccc(/C(N)=N/OC(=O)CC2CCCCC2)cc1 |  | 15 | 14.6 µM [rising, partial curve]
COc1ccc(-n2c(=S)[nH]c3cc(C(=O)NCc4ccccc4OC)ccc3c2=O)c(OC)c1 |  | 7.92 | 0.00517 µM [rising, full curve, poor fit]
CCCCCCCCS(=O)c1sc2nc(C)cc(C)c2c1N (centres undefined) | 0.291 µM [rising, partial curve, poor fit] |  | 
Cc1cc2ncn(CC(O)COc3cccc(C(=O)O)c3)c2cc1C (centres undefined) |  | 6.05 | 1.64 µM [rising, partial curve, poor fit]
COC(=O)c1cccc(NC(=O)CN2C(=O)C3CCCCC3C2=O)c1 (centres undefined) |  | 1.61 | 
COc1ccc(OC)c2sc(N(CCCN(C)C)C(=O)c3ccc(S(=O)(=O)N4CCc5ccccc5C4)cc3)nc12 | 3.66 µM [falling, full curve] | -77.2 | 0.517 µM [falling, partial curve, poor fit]

Compound | AC50 [1] | cell number change [%] | AC50 [2]
O=C(CS(=O)(=O)c1ccccc1)c1ccc2c(c1)OCCO2 |  | -26 | 23.1 µM [rising, single point]
CCC(=O)O/N=C(\N)c1ccc(Oc2cc(C)c(Cl)c(C)c2)c([N+](=O)[O-])c1 |  | 19 | 32.6 µM [falling, single point]
O=C(c1cc(=O)c2ccccc2o1)N1CCN(c2cccc(Cl)c2)CC1 | 23.1 µM [rising, single point] | 122 | 0.206 µM [rising, full curve, poor fit]
CC(C)CCn1c(SCCN2CCOCC2)nc2c1c(=O)[nH]c(=O)n2C | 18.4 µM [rising, partial curve, poor fit] | 62.8 | 
CN(C(=O)CC(NC(=O)c1ccccc1Cl)c1ccccc1)c1ccccc1 (centres undefined) | 0.116 µM [rising, full curve] | 31.5 | 0.0651 µM [rising, full curve, poor fit]
CC(C)Oc1ccc(C(=O)Nc2ccc(N3CCN(C(=O)c4ccco4)CC3)cc2)cc1 |  | 3.6 | 
CN1CCN(CCCc2c3c(cc4c2CCC4)CCC3)CC1 | 18.4 µM [rising, single point] | 63.6 | 6.51 µM [falling, single point]
CN1CCN(C(=S)Nc2cc(S(=O)(=O)N3CCOCC3)ccc2Cl)CC1 | 0.731 µM [falling, full curve, poor fit] | -3.11 | 0.517 µM [falling, full curve]
CC(C)c1onc(C(=O)Nc2cccnc2Cl)c1[N+](=O)[O-] | 0.259 µM [falling, partial curve, poor fit] | 20.5 | 
S=c1nc[nH]c2c1[nH]c1ccc(Cl)cc12 |  | 21.4 | 2.06 µM [rising, full curve]
O=C(NCCc1c[nH]c2ccccc12)C1CCN(S(=O)(=O)c2ccccc2)CC1 |  | -22.5 | 
O=C1CCCN1C(=O)CSc1ccc2ccccc2n1 | 1.64 µM [falling, partial curve] | 8.4 | 1.3 µM [falling, partial curve]
COc1cccc(NC(=O)Cn2c(=O)n(C)c(=O)c3sc4c(c32)COC(C)(C)C4)c1 | 23.1 µM [falling, single point] | -58.1 | 29.1 µM [falling, single point]
C=CCn1c(SCC(=O)NCC)nc2sc3c(c2c1=O)CCC3 | 0.82 µM [falling, full curve, poor fit] | -26.9 | 6.51 µM [rising, single point]
CC(/C=N/NC(=O)C(O)c1ccccc1)=C\c1ccccc1 (centres undefined) | 29.1 µM [falling, single point] | -36.9 | 20.6 µM [falling, partial curve]
Cc1cc(Cn2nc(-c3ccccc3)cc2C(=O)NCc2cccs2)on1 |  | -3.17 | 20.6 µM [falling, single point]
COCCn1c(SCC(=O)NC2CCCC(C)C2C)nc2ccccc2c1=O (centres undefined) |  | 25 | 
Cn1c(=O)n(C)c2cc([N+](=O)[O-])c(N3CCN(C(=O)c4ccc(F)cc4)CC3)cc21 | 6.51 µM [falling, single point] | 73.8 | 6.51 µM [falling, single point]

Some of the entries so far, with tabs.
Compound	AC50 [1]	cell number change [%]	AC50 [2]
O=C(CCNS(=O)(=O)c1ccc(Br)cc1)NC1CCN(Cc2ccccc2)CC1		1.12	29.1 µM [falling, single point]
Cc1noc(/C=C/N(C)C)c1S(=O)(=O)N1CCC(C(=O)O)CC1	0.116 µM [falling, full curve]	-30.3	0.206 µM [falling, full curve]
O=C(CCN1C(=O)S/C(=C/c2ccc(Cl)cc2)C1=O)N1CCOCC1	29.1 µM [rising, single point]	52.5	0.164 µM [rising, full curve, poor fit]
c1cncc(-c2nnc(SCc3cccc4ccccc34)o2)c1		29.3	3.26 µM [rising, single point]
Cc1c(Cl)cccc1NC(=O)C1CCN(c2cnccn2)CC1		16.7	5.17 µM [falling, single point]
CN(C)S(=O)(=O)c1cccc(NC(=O)CCCSc2ccccc2)c1		2.1	6.51 µM [rising, single point]
COC(=O)c1cccc(NC(=O)CN2C(=O)C3CCCCC3C2=O)c1 (centres undefined)		1.61	
CN1CCN(CCCc2c3c(cc4c2CCC4)CCC3)CC1	18.4 µM [rising, single point]	63.6	6.51 µM [falling, single point]
CN1CCN(C(=S)Nc2cc(S(=O)(=O)N3CCOCC3)ccc2Cl)CC1	0.731 µM [falling, full curve, poor fit]	-3.11	0.517 µM [falling, full curve]
CC(C)c1onc(C(=O)Nc2cccnc2Cl)c1[N+](=O)[O-]	0.259 µM [falling, partial curve, poor fit]	20.5	
COc1cccc(NC(=O)Cn2c(=O)n(C)c(=O)c3sc4c(c32)COC(C)(C)C4)c1	23.1 µM [falling, single point]	-58.1	29.1 µM [falling, single point]
